Numbering of substitutions follows the chain as printed. No constants are given. Whether binding was seen depends on the method and setting. Binding seen in cells or lysates may run through a third protein. Here binding means that the protein was enriched with, or labelled near, the bait; the list need not be complete.
Assays:
[1] = target: T1, Mad1(EFR/AAA)-BirA (human) (UniProt Q9Y6D9); test: proximity labelling; BioID: Mad1 fused to BirA in stable HeLa lines, nocodazole arrest, 25 μM biotin; RIPA lysis, streptavidin resin, stringent washes (2% SDS); read by SILAC mass spectrometry and western blot
T1 sequence: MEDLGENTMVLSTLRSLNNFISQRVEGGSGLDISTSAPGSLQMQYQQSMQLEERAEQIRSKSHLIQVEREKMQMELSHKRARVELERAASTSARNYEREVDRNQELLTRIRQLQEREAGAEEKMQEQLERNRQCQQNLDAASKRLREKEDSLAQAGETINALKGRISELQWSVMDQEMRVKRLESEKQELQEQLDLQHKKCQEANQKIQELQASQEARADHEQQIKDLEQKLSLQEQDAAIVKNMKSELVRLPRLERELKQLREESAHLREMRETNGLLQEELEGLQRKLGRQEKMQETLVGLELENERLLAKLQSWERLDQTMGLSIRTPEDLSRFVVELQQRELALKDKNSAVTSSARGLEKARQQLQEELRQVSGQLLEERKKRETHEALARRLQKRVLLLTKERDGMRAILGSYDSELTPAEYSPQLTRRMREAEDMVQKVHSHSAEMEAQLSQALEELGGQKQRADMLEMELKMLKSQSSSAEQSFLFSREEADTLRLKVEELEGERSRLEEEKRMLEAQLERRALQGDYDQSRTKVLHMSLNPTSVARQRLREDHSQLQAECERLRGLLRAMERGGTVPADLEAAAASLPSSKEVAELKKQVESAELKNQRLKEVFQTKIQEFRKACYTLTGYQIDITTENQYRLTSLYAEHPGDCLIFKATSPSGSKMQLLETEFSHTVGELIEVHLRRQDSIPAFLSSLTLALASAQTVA

Protein sequences, listed by entry. Tags and fused reporters are not part of them.
UniProt Q8NG31: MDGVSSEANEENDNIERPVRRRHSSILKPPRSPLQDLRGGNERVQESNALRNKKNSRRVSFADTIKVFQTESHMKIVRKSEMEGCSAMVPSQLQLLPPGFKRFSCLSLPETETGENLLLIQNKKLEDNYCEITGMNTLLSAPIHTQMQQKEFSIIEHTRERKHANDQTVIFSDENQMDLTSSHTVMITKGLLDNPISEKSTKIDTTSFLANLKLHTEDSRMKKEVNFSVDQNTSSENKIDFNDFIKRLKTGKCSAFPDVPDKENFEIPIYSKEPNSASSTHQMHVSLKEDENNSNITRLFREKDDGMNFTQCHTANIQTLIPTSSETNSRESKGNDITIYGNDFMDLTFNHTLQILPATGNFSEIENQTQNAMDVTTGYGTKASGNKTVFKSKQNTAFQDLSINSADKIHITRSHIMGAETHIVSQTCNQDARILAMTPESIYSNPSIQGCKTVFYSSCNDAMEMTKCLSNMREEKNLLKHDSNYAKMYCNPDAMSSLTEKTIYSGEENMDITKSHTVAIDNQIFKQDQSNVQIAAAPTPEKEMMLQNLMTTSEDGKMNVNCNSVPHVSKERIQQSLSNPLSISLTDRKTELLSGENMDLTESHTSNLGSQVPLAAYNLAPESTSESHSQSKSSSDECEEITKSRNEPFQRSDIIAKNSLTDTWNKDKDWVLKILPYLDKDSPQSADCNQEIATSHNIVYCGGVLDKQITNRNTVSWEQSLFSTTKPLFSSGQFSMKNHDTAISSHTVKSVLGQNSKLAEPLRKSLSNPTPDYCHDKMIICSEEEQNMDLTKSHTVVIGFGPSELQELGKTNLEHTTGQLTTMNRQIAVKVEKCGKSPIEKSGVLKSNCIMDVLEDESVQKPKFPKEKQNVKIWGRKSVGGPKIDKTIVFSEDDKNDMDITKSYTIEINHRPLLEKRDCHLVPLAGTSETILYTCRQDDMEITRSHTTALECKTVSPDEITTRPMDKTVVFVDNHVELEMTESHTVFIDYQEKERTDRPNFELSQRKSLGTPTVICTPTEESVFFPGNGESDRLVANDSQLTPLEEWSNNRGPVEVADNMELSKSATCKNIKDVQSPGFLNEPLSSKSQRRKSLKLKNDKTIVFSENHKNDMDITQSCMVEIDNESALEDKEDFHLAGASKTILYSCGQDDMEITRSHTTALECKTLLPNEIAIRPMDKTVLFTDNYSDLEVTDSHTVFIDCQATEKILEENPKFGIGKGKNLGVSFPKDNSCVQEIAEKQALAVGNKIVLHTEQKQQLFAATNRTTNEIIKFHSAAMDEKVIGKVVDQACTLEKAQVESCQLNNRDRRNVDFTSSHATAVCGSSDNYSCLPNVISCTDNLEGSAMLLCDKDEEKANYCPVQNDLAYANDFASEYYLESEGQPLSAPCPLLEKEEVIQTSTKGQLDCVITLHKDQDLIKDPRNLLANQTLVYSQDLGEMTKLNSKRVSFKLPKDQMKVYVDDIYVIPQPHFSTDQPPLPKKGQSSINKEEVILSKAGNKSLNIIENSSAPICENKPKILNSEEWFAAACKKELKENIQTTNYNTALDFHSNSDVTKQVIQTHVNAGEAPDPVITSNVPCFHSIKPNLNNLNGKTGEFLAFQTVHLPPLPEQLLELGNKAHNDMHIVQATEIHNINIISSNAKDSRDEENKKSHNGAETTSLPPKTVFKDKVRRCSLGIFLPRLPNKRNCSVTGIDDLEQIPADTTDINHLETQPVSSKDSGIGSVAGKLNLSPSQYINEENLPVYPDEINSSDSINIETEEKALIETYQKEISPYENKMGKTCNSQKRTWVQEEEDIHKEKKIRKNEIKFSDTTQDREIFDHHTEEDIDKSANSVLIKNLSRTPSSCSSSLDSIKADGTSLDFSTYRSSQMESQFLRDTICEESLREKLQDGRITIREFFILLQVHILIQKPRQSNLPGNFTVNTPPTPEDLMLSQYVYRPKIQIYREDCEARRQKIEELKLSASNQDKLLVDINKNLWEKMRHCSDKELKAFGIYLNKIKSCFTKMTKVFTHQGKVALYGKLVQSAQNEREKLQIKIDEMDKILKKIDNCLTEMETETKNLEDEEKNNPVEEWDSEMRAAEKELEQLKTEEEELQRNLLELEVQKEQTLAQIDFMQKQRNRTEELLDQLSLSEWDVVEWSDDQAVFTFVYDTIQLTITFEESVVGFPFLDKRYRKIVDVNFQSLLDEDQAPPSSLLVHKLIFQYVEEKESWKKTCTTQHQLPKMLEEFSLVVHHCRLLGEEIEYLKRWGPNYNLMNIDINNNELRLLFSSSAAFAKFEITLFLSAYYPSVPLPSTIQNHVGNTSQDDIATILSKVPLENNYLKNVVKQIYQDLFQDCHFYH

Mad1-BirA (human) = target: T2, Mad1-BirA (human) (UniProt Q9Y6D9); test: as above
T2 sequence: T1 sequence with A710E, A712F, A714R

## KNL1 (from UniProt Q8NG31 1-2342)
[1]
  binding: binds
Mad1-BirA (human)
  binding: binds

— article PMC5472792, “Bub1 positions Mad1 close to KNL1 MELT repeats to promote checkpoint signalling” (Nature Communications, 2017)
